Data as given in PubChem BioAssay AID504764 (Drosophila RNAi Screening Center, 2011).
In all, the deposit lists about 22,000 reagents; this is an unselected part of those with a known target gene and a result. In the full data, 403 (1.9%) were called active. 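Unnormalised raw counts per well; ratio z-scores behind the hit calls and whether each hit raises or lowers signal are not deposited.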 A plus sign joins genes that one reagent is predicted to hit. The record does not give: the amount of reagent.

- Aim: 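Genes whose knock-down alters Notch-dependent transcription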 (primary screen)
- System: Drosophila Kc167 cells
- Knock-down reagent: long dsRNA against Drosophila genes
- Duration: about 5 days (4 days dsRNA, then 24 h after transfection)
- Conditions: transfection of constitutively active membrane-tethered Notch lacking the extracellular domain, read 24 h later
- Read-out: 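Firefly luciferase from an E(spl)m3 reporter with active Notch, plus control-promoter and uninduced reporter wells for normalisation; unnormalised counts, duplicate wells a and b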
- Reading the numbers: induced reporter light, run 1, well a and induced reporter light, run 1, well b: higher = more light from the Notch target reporter with active Notch; control promoter light, run 1, well a and control promoter light, run 1, well b: higher = more light from the viral control promoter (cell number, transfection, viability); uninduced reporter light, run 1, well a: higher = more light from the Notch target reporter without active Notch
- Call rule: 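Wells with low control signal or poorly matching duplicates excluded; duplicates averaged; per source plate, z beyond ±2 for induced/control log2 ratio or beyond ±1.8 for induced/uninduced marks a hit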
- Meaning of the calls: active = modifier hit (raised or lowered Notch signal); inactive = not a hit

The first 6 records, ahead of the listing:
gene knocked down | PubChem SID | induced reporter light, run 1, well a | induced reporter light, run 1, well b | control promoter light, run 1, well a | control promoter light, run 1, well b | uninduced reporter light, run 1, well a | outcome
Elp3 | SID104180240 | 1.22e5 | 97365 | 1.46e5 | 1.23e5 | 7745 | inactive
CG9676 | SID104199996 | 72475 | 67210 | 85700 | 73835 | 9160 | inactive
CG5902 | SID104195704 | 1.61e5 | 1.63e5 | 1.90e5 | 2.13e5 | 14485 | inactive
CG33259 | SID104190646 | 2.37e5 | 1.87e5 | 2.42e5 | 2.62e5 | 10500 | inactive
CG31710 | SID104180881 | 1.12e5 | 1.14e5 | 1.41e5 | 1.28e5 | 8805 | inactive
CG1428 | SID104183500 | 40420 | 32585 | 38720 | 56165 | 2990 | inactive

The list itself, from the first entry:
gene knocked down | PubChem SID | induced reporter light, run 1, well a | induced reporter light, run 1, well b | control promoter light, run 1, well a | control promoter light, run 1, well b | uninduced reporter light, run 1, well a | outcome
Elp3 | SID104180240 | 1.22e5 | 97365 | 1.46e5 | 1.23e5 | 7745 | inactive
CG9676 | SID104199996 | 72475 | 67210 | 85700 | 73835 | 9160 | inactive
CG5902 | SID104195704 | 1.61e5 | 1.63e5 | 1.90e5 | 2.13e5 | 14485 | inactive
CG33259 | SID104190646 | 2.37e5 | 1.87e5 | 2.42e5 | 2.62e5 | 10500 | inactive
CG31710 | SID104180881 | 1.12e5 | 1.14e5 | 1.41e5 | 1.28e5 | 8805 | inactive
CG1428 | SID104183500 | 40420 | 32585 | 38720 | 56165 | 2990 | inactive
CG7326 | SID104199829 | 75040 | 74565 | 98405 | 1.05e5 | 9160 | inactive
CG2246 | SID104195225 | 1.72e5 | 1.73e5 | 2.21e5 | 2.27e5 | 12015 | inactive
CG13962 | SID104182096 | 87235 | 54545 | 63195 | 79590 | 2885 | inactive
CG31106 | SID104194447 | 1.99e5 | 1.53e5 | 2.17e5 | 2.03e5 | 14415 | inactive
CG11131 | SID104191428 | 1.32e5 | 1.45e5 | 1.04e5 | 1.28e5 | 7640 | inactive
CG4020 | SID104198129 | 1.06e5 | 1.09e5 | 1.91e5 | 2.01e5 | 6538 | inactive
CG10713 | SID104189578 | 84670 | 80650 | 50830 | 51000 | 11160 | active
CG13658 | SID104194451 | 1.07e5 | 1.29e5 | 1.53e5 | 1.63e5 | 11685 | inactive
CG5103 | SID104190273 | 1.57e5 | 1.34e5 | 2.19e5 | 2.19e5 | 11030 | inactive
mtgo | SID104182037 | 1.50e5 | 1.49e5 | 1.40e5 | 1.58e5 | 14115 | inactive
mtgo | SID104182038 | 10390 | 8085 | 8460 | 7790 | 3810 | inactive
mtgo | SID104182561 | 2.29e5 | 2.40e5 | 1.98e5 | 2.01e5 | 18130 | inactive
mtgo | SID104201156 | – | – | – | – | – | inactive
Ser8 | SID104186683 | 89320 | 96655 | 86920 | 81555 | 9905 | active
CG7483 | SID104196041 | 1.21e5 | 1.34e5 | 1.09e5 | 91200 | 7315 | inactive
CG7483 | SID104201903 | – | – | – | – | – | active
Cyp9f2 | SID104196427 | 1.47e5 | 1.37e5 | 76865 | 81250 | 9670 | inactive
CG2258 | SID104198014 | 2.74e5 | 2.41e5 | 3.90e5 | 3.78e5 | 15865 | inactive
wwk | SID104181733 | 1.56e5 | 1.73e5 | 1.73e5 | 1.74e5 | 17860 | inactive
Ndfip | SID104190993 | 1.37e5 | 1.27e5 | 1.03e5 | 97185 | 9705 | inactive
CG13983 | SID104182107 | 99100 | 75805 | 1.01e5 | 66145 | 5305 | inactive
CG42319 | SID104186437 | 90895 | 95650 | 1.09e5 | 85315 | 8405 | inactive
CG42319 | SID104186438 | 82350 | 1.18e5 | 1.12e5 | 1.14e5 | 9780 | inactive
U4-U6-60K | SID104190416 | 1.18e5 | 1.08e5 | 60975 | 61215 | 6390 | inactive
Taf4 | SID104191089 | 56730 | 57900 | 24100 | 37165 | 4760 | inactive
CG15439 | SID104180245 | 1.82e5 | 1.67e5 | 3.31e5 | 3.24e5 | 14410 | inactive
Tmtc3 | SID104184236 | 1.36e5 | 1.48e5 | 1.03e5 | 1.06e5 | 8245 | inactive
frtz | SID104180304 | 70600 | 67940 | 41090 | 40815 | 6915 | inactive
CG31051 | SID104194826 | 1.84e5 | 2.60e5 | 2.72e5 | 3.72e5 | 17780 | inactive
Ugt303B3 | SID104193991 | 1.11e5 | 1.08e5 | 1.41e5 | 1.37e5 | 11140 | inactive
Or85d | SID104196559 | 49850 | 59075 | 51320 | 36995 | 3735 | inactive
CG18766 | SID104195728 | 1.52e5 | 1.71e5 | 2.19e5 | 2.27e5 | 13710 | inactive
CG4000 | SID104195327 | 2.03e5 | 2.34e5 | 1.80e5 | 1.86e5 | 12385 | inactive
CG4000 | SID104201262 | – | – | – | – | – | inactive
l(3)04053 | SID104191432 | 1.18e5 | 1.23e5 | 67060 | 67445 | 8930 | inactive
CG30026 | SID104185068 | 2.55e5 | 2.06e5 | 2.71e5 | 3.12e5 | 26180 | inactive
Sec71 | SID104181685 | 1.20e5 | 1.26e5 | 92825 | 1.35e5 | 10938 | inactive
CG17780 + CG17781 | SID104195058 | 1.43e5 | 1.54e5 | 1.71e5 | 1.65e5 | 12100 | inactive
CG12640 | SID104197639 | 1.29e5 | 99095 | 1.72e5 | 2.12e5 | 8735 | inactive
CG9368 | SID104190859 | 1.13e5 | 1.41e5 | 98815 | 93755 | 10725 | inactive
bard | SID104194588 | 1.74e5 | 1.87e5 | 2.06e5 | 2.13e5 | 13115 | inactive
Rtc1 | SID104200077 | 2.01e5 | 1.74e5 | 2.66e5 | 2.95e5 | 13630 | inactive
CG15201 | SID104199440 | 1.54e5 | 1.51e5 | 2.59e5 | 2.88e5 | 10910 | inactive
IntS6 | SID104198073 | 1.52e5 | 1.42e5 | 1.08e5 | 99905 | 21910 | active
